These are yes or no findings as the source states them, for the method shown. In cells and extracts the contact can be indirect. Some entries that bind do so weakly or less than the wild type. Where a sequence is shown, tags or fusion partners need not be part of it.
B1: His-TFPI2(ΔKD2) (protein, UniProt P48307)
chain: DAAQEPTGNNAEICLLPLDYGPCRALLLRYYYDRYTQSCRQFLYGGCEGNANNFYTWEACDDACWRIEKVPKVAPKKIPSFCYSPKDEGLCSANVTRYYFNPRYRTCDAFTYTGCGGNDNNFVSREDCKRACAKALKKKKKMPKLRFASRIRKIRKKQF
B2: His-TFPI2(ΔKD1) (protein, UniProt P48307)
chain: DAAQEPTGNNAEIWRIEKVPKVCRLQVSVDDQCEGSTEKYFFNLSSMTCEKFFSGGCHRNRIENRFPDEATCMGFCAPKKIPSFCYSPKDEGLCSANVTRYYFNPRYRTCDAFTYTGCGGNDNNFVSREDCKRACAKALKKKKKMPKLRFASRIRKIRKKQF
B3: His-TFPI2 (protein, UniProt P48307 23-235)
chain: DAAQEPTGNNAEICLLPLDYGPCRALLLRYYYDRYTQSCRQFLYGGCEGNANNFYTWEACDDACWRIEKVPKVCRLQVSVDDQCEGSTEKYFFNLSSMTCEKFFSGGCHRNRIENRFPDEATCMGFCAPKKIPSFCYSPKDEGLCSANVTRYYFNPRYRTCDAFTYTGCGGNDNNFVSREDCKRACAKALKKKKKMPKLRFASRIRKIRKKQF
B4: His-TFPI2(ΔKD3) (protein, UniProt P48307)
chain: DAAQEPTGNNAEICLLPLDYGPCRALLLRYYYDRYTQSCRQFLYGGCEGNANNFYTWEACDDACWRIEKVPKVCRLQVSVDDQCEGSTEKYFFNLSSMTCEKFFSGGCHRNRIENRFPDEATCMGFCAPKKIPSFAKALKKKKKMPKLRFASRIRKIRKKQF

By UniProt entry, the sequences of proteins in these tests, tags left out.
UniProt P30622: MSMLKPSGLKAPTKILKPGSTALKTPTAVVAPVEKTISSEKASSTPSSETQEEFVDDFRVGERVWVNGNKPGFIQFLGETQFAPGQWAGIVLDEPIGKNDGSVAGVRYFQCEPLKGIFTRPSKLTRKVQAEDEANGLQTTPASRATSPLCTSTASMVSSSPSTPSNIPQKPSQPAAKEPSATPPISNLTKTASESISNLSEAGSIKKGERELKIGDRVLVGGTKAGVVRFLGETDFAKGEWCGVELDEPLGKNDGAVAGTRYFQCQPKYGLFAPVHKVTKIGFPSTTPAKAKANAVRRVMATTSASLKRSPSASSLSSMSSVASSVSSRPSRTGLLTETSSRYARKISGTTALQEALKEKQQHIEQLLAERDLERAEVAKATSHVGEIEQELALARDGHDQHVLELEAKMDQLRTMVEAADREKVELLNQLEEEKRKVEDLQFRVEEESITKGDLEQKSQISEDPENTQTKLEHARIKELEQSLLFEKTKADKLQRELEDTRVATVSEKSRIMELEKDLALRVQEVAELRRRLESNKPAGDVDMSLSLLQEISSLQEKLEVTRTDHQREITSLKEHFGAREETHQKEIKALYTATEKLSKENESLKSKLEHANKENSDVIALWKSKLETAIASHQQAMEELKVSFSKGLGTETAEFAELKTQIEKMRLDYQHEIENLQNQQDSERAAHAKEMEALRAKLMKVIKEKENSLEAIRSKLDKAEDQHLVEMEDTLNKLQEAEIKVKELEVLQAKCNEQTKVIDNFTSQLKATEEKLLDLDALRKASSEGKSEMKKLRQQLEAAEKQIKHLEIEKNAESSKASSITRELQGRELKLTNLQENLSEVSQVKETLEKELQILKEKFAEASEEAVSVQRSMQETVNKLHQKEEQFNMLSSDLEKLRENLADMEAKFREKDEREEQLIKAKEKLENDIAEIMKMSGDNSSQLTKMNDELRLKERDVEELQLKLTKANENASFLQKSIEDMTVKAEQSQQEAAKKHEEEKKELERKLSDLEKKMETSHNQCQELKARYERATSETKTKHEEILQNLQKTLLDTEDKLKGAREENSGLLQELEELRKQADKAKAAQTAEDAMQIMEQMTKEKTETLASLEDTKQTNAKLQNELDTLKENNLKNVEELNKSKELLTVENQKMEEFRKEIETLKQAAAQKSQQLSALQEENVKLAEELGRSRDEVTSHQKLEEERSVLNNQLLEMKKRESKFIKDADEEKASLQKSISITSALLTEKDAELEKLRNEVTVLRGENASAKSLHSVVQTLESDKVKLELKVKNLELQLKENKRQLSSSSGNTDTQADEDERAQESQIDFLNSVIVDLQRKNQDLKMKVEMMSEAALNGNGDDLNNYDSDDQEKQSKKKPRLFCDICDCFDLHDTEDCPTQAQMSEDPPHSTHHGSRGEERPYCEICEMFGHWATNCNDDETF

The binders below were run against Flag-CLIP1 (UniProt P30622) (assay: co-IP; HEK293T cells transfected with Flag-tagged CLIP1 and His-tagged TFPI2 or its mutants; cell protein extract precipitated with anti-FLAG primary antibody).

Row | binding | Binder
1 | binds | B1
2 | no binding | B2
3 | binds | B3
4 | binds | B4
